In publication PMC4683276:
Results are given in words; binding and its absence hold for the method and conditions named. Binding seen in cells or lysates may run through a third protein. Some binding calls cover weakened binding; strength is not graded here. For some assays here: Sequences can lack the tags named with a protein. One block for each molecule: values may come before it.

Sequences of proteins named here, by UniProt entry; tags and fusion partners are left off. Residues count along the entry.
UniProt Q01974, residues 34-943: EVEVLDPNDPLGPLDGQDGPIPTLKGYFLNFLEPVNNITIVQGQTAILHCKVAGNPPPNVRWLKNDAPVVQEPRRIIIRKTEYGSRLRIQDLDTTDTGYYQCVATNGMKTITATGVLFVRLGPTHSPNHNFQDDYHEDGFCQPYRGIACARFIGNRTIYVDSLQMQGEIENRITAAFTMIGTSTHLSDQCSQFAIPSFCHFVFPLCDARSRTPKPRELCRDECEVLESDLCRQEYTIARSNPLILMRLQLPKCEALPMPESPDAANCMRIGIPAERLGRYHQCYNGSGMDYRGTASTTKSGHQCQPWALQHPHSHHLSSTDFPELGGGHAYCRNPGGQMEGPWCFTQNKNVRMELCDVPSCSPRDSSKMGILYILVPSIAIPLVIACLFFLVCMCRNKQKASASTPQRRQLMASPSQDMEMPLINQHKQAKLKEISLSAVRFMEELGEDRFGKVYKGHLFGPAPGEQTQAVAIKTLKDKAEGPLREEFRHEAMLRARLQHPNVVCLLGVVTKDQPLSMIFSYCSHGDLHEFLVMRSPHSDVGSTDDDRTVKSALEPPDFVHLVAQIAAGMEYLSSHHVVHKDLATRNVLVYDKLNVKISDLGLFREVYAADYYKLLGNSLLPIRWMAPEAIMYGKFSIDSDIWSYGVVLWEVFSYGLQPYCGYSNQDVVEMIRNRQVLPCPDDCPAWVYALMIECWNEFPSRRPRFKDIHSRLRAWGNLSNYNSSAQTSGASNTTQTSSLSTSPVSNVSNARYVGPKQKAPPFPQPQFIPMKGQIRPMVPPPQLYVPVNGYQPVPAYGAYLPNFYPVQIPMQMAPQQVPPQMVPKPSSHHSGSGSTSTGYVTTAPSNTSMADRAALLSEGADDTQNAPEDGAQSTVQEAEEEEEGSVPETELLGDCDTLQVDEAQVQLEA
UniProt Q9Z138, residues 34-944: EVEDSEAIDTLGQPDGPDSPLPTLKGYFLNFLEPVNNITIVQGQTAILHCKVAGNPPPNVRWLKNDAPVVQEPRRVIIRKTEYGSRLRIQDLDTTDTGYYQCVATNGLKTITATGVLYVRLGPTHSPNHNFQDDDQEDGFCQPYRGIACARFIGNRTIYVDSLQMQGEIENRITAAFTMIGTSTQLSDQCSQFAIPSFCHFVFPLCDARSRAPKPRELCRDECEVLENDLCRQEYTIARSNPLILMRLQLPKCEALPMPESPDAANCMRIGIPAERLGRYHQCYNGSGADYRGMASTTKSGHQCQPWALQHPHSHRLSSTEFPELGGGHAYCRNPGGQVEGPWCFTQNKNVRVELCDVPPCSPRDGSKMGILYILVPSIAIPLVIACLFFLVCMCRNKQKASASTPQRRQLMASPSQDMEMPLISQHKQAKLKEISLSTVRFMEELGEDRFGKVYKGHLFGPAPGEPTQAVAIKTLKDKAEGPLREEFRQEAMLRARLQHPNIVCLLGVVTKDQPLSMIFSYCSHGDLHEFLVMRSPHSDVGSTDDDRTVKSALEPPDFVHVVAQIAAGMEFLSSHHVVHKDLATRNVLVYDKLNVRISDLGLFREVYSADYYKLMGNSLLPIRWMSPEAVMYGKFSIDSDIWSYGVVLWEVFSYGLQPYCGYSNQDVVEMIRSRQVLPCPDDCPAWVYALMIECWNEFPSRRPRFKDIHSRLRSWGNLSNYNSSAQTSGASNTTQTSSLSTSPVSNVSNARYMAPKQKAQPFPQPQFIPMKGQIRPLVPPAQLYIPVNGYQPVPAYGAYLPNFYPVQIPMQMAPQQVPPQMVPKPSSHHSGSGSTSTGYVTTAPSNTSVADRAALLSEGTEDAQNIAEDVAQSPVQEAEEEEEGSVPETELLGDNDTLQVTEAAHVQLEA
UniProt Q01973, residues 30-937: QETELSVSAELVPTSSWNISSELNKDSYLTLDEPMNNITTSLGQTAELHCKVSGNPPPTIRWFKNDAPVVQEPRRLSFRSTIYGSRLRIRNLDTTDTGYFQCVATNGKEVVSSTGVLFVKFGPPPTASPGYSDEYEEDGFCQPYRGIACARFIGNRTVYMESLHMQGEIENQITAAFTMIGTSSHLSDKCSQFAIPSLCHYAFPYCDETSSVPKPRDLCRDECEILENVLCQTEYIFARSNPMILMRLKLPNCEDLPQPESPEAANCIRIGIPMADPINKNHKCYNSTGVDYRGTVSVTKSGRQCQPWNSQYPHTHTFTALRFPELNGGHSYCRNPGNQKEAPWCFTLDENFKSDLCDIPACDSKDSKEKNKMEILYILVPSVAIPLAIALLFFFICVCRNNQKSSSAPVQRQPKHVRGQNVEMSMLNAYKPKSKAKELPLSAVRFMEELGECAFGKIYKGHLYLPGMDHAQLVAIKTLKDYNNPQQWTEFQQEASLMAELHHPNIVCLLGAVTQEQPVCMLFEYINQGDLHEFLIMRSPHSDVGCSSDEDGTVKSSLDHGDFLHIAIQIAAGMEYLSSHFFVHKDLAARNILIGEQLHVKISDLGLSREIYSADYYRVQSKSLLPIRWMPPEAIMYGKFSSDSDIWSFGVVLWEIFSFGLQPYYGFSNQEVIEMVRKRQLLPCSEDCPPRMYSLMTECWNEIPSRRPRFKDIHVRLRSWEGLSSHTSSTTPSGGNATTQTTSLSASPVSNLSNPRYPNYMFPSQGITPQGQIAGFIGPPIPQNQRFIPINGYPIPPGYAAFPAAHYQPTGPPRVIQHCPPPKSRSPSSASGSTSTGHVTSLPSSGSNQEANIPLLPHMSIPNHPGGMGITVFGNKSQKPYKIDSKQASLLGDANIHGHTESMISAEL

What was measured:
[1] = biological target: T1, HA-WNT5A (UniProt P41221); test: co-IP; PTK7, FLAG-ROR2 and HA-WNT5A co-expressed in HEK 293T cells; immunoprecipitation with anti-HA antibody; Western blot (Fig. 2E)
T1 sequence: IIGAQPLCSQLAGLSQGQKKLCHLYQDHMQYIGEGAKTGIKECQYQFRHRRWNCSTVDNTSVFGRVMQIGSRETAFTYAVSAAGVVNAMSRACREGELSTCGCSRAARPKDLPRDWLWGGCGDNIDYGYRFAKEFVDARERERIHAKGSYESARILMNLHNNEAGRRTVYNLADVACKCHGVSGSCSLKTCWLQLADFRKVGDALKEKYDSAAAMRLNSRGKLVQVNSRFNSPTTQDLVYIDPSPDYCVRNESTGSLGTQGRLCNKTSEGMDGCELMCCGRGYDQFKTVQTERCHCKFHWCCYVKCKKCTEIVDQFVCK

[2] = biological target: T2, PTK7 (protein tyrosine kinase 7), full-length human construct (human) (UniProt Q13308); test: co-IP; co-expression in HEK 293T cells; 1% Triton X-100 lysis buffer (50 mM Hepes, 150 mM NaCl); immunoprecipitation with anti-PTK7 antibody and protein G-agarose; Western blot (Fig. 1A, C, D)
T2 sequence: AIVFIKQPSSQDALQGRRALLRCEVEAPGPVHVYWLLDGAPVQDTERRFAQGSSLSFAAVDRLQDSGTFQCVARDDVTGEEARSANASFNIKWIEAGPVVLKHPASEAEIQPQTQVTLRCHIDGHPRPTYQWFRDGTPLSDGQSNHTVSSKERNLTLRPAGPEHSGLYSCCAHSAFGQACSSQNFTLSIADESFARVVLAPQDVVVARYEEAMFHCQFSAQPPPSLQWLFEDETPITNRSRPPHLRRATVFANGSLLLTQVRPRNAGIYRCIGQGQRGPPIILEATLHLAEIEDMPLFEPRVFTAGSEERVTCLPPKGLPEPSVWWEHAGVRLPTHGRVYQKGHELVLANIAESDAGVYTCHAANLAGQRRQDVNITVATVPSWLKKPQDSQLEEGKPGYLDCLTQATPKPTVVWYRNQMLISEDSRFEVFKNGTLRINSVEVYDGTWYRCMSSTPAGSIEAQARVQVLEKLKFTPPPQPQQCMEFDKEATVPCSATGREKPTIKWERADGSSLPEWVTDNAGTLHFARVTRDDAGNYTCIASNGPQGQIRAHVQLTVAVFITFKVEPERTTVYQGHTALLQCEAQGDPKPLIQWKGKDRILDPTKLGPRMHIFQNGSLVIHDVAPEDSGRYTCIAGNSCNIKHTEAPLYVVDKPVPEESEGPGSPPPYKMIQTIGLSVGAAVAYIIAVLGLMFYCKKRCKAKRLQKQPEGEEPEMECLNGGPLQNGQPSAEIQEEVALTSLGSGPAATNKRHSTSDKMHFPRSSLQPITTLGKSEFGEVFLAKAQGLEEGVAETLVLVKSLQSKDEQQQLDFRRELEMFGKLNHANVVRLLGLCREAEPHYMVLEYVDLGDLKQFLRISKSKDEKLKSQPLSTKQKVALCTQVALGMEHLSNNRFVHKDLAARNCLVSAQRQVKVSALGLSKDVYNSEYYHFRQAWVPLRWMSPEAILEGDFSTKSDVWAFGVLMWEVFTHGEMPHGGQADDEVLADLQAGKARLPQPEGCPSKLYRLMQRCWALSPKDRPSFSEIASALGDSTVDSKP

[3] = biological target: T3, PTK7, endogenous in mouse embryonic fibroblasts (mouse (endogenous in MEFs)) (UniProt Q8BKG3); test: co-IP; endogenous proteins of MEFs (expressing or not expressing Ptk7), stimulated with WNT5A (200 ng/ml) or left unstimulated; immunoprecipitation with anti-PTK7 antibody or an isotype-matched control IgG; Western blot (Fig. 1F)
T3 sequence: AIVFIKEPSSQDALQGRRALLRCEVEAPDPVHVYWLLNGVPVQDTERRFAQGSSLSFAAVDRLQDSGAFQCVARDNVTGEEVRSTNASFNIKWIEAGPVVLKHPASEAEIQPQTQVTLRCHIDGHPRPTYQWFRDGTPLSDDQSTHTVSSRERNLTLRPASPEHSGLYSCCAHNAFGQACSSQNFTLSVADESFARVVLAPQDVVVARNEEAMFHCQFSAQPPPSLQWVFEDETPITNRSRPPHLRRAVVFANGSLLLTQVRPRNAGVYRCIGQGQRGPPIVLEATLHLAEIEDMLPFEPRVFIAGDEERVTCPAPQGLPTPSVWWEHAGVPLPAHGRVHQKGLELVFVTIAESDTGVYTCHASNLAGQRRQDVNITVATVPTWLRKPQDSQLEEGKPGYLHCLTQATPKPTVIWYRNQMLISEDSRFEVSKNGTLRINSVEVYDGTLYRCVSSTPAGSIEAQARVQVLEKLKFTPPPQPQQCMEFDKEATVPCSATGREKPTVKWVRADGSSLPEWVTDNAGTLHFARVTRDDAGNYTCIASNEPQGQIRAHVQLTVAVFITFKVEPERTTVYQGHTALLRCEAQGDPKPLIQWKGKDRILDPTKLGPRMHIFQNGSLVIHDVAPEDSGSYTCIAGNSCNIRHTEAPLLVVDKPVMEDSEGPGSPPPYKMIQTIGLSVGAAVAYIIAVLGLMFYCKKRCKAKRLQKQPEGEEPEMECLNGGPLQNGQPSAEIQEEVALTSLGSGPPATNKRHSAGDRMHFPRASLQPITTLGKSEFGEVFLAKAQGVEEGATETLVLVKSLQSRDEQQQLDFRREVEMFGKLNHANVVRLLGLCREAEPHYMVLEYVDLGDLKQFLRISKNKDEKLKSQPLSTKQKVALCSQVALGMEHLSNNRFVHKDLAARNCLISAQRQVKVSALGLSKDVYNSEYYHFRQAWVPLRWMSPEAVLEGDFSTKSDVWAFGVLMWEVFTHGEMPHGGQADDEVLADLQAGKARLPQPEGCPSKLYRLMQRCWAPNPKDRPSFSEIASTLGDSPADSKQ

[4] = biological target: FLAG-ROR2 (receptor tyrosine kinase-like orphan receptor 2) (UniProt Q01974); test: co-IP; co-expression in HEK 293T cells; immunoprecipitation with anti-FLAG antibody; Western blot (Fig. 2A, B, D); in Fig. 2D also in cells transfected with a siRNA against ROR2
[5] = biological target: T4, FLAG-PTK7 (human) (UniProt Q13308); test: as above
T4 sequence: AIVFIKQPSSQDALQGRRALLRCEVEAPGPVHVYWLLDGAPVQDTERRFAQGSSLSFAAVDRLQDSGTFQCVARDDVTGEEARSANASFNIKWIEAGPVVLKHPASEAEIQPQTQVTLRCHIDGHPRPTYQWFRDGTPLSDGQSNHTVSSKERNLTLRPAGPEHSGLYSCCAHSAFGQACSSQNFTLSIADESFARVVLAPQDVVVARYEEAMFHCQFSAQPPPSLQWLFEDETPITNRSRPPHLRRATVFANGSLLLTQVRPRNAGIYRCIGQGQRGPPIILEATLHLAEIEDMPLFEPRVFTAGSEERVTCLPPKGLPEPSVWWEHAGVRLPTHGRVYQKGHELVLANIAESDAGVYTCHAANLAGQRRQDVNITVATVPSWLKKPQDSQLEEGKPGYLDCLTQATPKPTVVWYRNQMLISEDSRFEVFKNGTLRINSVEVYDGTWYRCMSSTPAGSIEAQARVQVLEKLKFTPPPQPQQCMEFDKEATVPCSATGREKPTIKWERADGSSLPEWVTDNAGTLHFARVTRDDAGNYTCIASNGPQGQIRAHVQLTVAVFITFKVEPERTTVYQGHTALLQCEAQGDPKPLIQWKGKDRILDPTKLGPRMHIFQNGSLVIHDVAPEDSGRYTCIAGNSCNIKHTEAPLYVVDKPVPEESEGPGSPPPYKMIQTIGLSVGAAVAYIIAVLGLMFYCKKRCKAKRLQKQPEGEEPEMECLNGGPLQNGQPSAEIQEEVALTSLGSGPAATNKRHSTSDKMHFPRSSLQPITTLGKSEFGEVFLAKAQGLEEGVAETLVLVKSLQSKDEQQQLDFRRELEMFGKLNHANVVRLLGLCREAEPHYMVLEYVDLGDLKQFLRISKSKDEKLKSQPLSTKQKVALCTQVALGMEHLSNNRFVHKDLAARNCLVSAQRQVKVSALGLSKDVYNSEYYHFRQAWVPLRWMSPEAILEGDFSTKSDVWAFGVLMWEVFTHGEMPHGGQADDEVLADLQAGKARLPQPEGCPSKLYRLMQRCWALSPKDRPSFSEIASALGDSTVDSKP

[6] = biological target: T5, MYC-WNT5A (UniProt P41221); test: co-IP; full and truncated PTK7 co-expressed with MYC-WNT5A in HEK 293T cells; immunoprecipitation with anti-MYC antibody; Western blot (Fig. 2C)
T5 sequence: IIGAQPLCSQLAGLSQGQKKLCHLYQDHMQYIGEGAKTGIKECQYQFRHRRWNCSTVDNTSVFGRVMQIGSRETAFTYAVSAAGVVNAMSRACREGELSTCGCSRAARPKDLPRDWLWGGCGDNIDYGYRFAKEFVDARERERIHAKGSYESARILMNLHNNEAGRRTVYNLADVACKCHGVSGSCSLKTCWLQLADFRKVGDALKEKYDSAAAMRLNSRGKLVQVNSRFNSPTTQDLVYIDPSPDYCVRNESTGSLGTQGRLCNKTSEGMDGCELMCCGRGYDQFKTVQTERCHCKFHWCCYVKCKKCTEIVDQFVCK

Molecule: ROR2, endogenous in mouse embryonic fibroblasts (from UniProt Q9Z138 34-944) (receptor)
binding [3]: binds

B1: MYC-WNT5A (ligand, UniProt P41221 62-380)
chain: IIGAQPLCSQLAGLSQGQKKLCHLYQDHMQYIGEGAKTGIKECQYQFRHRRWNCSTVDNTSVFGRVMQIGSRETAFTYAVSAAGVVNAMSRACREGELSTCGCSRAARPKDLPRDWLWGGCGDNIDYGYRFAKEFVDARERERIHAKGSYESARILMNLHNNEAGRRTVYNLADVACKCHGVSGSCSLKTCWLQLADFRKVGDALKEKYDSAAAMRLNSRGKLVQVNSRFNSPTTQDLVYIDPSPDYCVRNESTGSLGTQGRLCNKTSEGMDGCELMCCGRGYDQFKTVQTERCHCKFHWCCYVKCKKCTEIVDQFVCK
binding [4]: binds

B2: HA-WNT5A (ligand, UniProt P41221 62-380)
chain: IIGAQPLCSQLAGLSQGQKKLCHLYQDHMQYIGEGAKTGIKECQYQFRHRRWNCSTVDNTSVFGRVMQIGSRETAFTYAVSAAGVVNAMSRACREGELSTCGCSRAARPKDLPRDWLWGGCGDNIDYGYRFAKEFVDARERERIHAKGSYESARILMNLHNNEAGRRTVYNLADVACKCHGVSGSCSLKTCWLQLADFRKVGDALKEKYDSAAAMRLNSRGKLVQVNSRFNSPTTQDLVYIDPSPDYCVRNESTGSLGTQGRLCNKTSEGMDGCELMCCGRGYDQFKTVQTERCHCKFHWCCYVKCKKCTEIVDQFVCK
binding [5]: binds

More lines, now with the values ahead:

binding [1]: binds
binding [2]: binds
Molecule: FLAG-ROR2 (receptor tyrosine kinase-like orphan receptor 2) (from UniProt Q01974 34-943)

binding [2]: no binding
Molecule: FLAG-ROR1 (from UniProt Q01973 30-937) (receptor)

binding [5]: no binding
B3: HA-WNT1 (ligand, UniProt P04628 28-370)
chain: ANSSGRWWGIVNVASSTNLLTDSKSLQLVLEPSLQLLSRKQRRLIRQNPGILHSVSGGLQSAVRECKWQFRNRRWNCPTAPGPHLFGKIVNRGCRETAFIFAITSAGVTHSVARSCSEGSIESCTCDYRRRGPGGPDWHWGGCSDNIDFGRLFGREFVDSGEKGRDLRFLMNLHNNEAGRTTVFSEMRQECKCHGMSGSCTVRTCWMRLPTLRAVGDVLRDRFDGASRVLYGNRGSNRASRAELLRLEPEDPAHKPPSPHDLVYFEKSPNFCTYSGRLGTAGTAGRACNSSSPALDGCELLCCGRGHRTRTQRVTERCNCTFHWCCHVSCRNCTHTRVLHECL

binding [6]: binds
B4: PTK7 (protein tyrosine kinase 7), full-length human construct (receptor, UniProt Q13308 31-1070)
chain: AIVFIKQPSSQDALQGRRALLRCEVEAPGPVHVYWLLDGAPVQDTERRFAQGSSLSFAAVDRLQDSGTFQCVARDDVTGEEARSANASFNIKWIEAGPVVLKHPASEAEIQPQTQVTLRCHIDGHPRPTYQWFRDGTPLSDGQSNHTVSSKERNLTLRPAGPEHSGLYSCCAHSAFGQACSSQNFTLSIADESFARVVLAPQDVVVARYEEAMFHCQFSAQPPPSLQWLFEDETPITNRSRPPHLRRATVFANGSLLLTQVRPRNAGIYRCIGQGQRGPPIILEATLHLAEIEDMPLFEPRVFTAGSEERVTCLPPKGLPEPSVWWEHAGVRLPTHGRVYQKGHELVLANIAESDAGVYTCHAANLAGQRRQDVNITVATVPSWLKKPQDSQLEEGKPGYLDCLTQATPKPTVVWYRNQMLISEDSRFEVFKNGTLRINSVEVYDGTWYRCMSSTPAGSIEAQARVQVLEKLKFTPPPQPQQCMEFDKEATVPCSATGREKPTIKWERADGSSLPEWVTDNAGTLHFARVTRDDAGNYTCIASNGPQGQIRAHVQLTVAVFITFKVEPERTTVYQGHTALLQCEAQGDPKPLIQWKGKDRILDPTKLGPRMHIFQNGSLVIHDVAPEDSGRYTCIAGNSCNIKHTEAPLYVVDKPVPEESEGPGSPPPYKMIQTIGLSVGAAVAYIIAVLGLMFYCKKRCKAKRLQKQPEGEEPEMECLNGGPLQNGQPSAEIQEEVALTSLGSGPAATNKRHSTSDKMHFPRSSLQPITTLGKSEFGEVFLAKAQGLEEGVAETLVLVKSLQSKDEQQQLDFRRELEMFGKLNHANVVRLLGLCREAEPHYMVLEYVDLGDLKQFLRISKSKDEKLKSQPLSTKQKVALCTQVALGMEHLSNNRFVHKDLAARNCLVSAQRQVKVSALGLSKDVYNSEYYHFRQAWVPLRWMSPEAILEGDFSTKSDVWAFGVLMWEVFTHGEMPHGGQADDEVLADLQAGKARLPQPEGCPSKLYRLMQRCWALSPKDRPSFSEIASALGDSTVDSKP
